Results on one molecule are retold here after publication PMC12270184.

No constants are given. Whether binding was seen depends on the method and setting. Some binding calls cover weakened binding; strength is not graded here.

This assay deals with Dihydrolipoamide S-acetyltransferase (DLAT) (mouse (endogenous in substantia nigra tissue of C57BL/6J mice)) (UniProt Q8BMF4). In words: Western blot of oligomers; SN tissue of Saline and MPTP-treated mice homogenised in RIPA buffer with PMSF, SDS-PAGE, blot with anti-DLAT antibody; gel conditions for the oligomer band not told.

B1: Dihydrolipoamide S-acetyltransferase (DLAT) (protein, UniProt Q8BMF4 86-642)
chain: SLPPHQKVPLPSLSPTMQAGTIARWEKKEGEKISEGDLIAEVETDKATVGFESLEECYMAKILVPEGTRDVPVGSIICITVEKPQDIEAFKNYTLDLAAAAAPQAAPAAAPAPAAAPAAPSASAPGSSYPTHMQIVLPALSPTMTMGTVQRWEKKVGEKLSEGDLLAEIETDKATIGFEVQEEGYLAKILVPEGTRDVPLGAPLCIIVEKQEDIAAFADYRPTEVTSLKPQAAPPAPPPVAAVPPTPQPVAPTPSAAPAGPKGRVFVSPLAKKLAAEKGIDLTQVKGTGPEGRIIKKDIDSFVPSKAAPAAAAAMAPPGPRVAPAPAGVFTDIPISNIRRVIAQRLMQSKQTIPHYYLSVDVNMGEVLLVRKELNKMLEGKGKISVNDFIIKASALACLKVPEANSSWMDTVIRQNHVVDVSVAVSTPAGLITPIVFNAHIKGLETIASDVVSLASKAREGKLQPHEFQGGTFTISNLGMFGIKNFSAIINPPQACILAIGASEDKLIPADNEKGFDVASVMSVTLSCDHRVVDGAVGAQWLAEFKKYLEKPITMLL
Take B1: the binding result is recorded as “binds”.
